PubChem BioAssay AID720505 – Drosophila RNAi Screening Center, 2013
In all, the deposit lists about 20,000 reagents; this is a random part of those that have a named target and a result. Of all reagents, about 2,100 (10%) got an active call. 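Raw plate signals without normalisation; calls rest on control-based scores that were not deposited; replicate 2 separates called from uncalled poorly.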 A plus sign joins genes that one reagent is predicted to hit. No sequences are given here. Not given: the amount of reagent, the time to read-out.

Assay: 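Genes needed for store-operated calcium entry in fly cells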 (primary screen)
Cell system: Drosophila S2R+ cells
Knock-down reagent: long dsRNA against Drosophila genes
Challenge: thapsigargin (2 µM) in calcium-free buffer to empty internal stores, then 2 mM calcium added back
Measurement: 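Stores emptied by 2 µM thapsigargin without calcium, then 2 mM calcium re-added; fluo-4 fluorescence followed by FLIPR in 384-well plates, per-well averaged endpoint, raw; two screen passes, some wells retested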
Reading the numbers: calcium signal and retest calcium signal: higher = more calcium entry after store depletion
Active means: 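Knock-downs counted as hits when calcium entry dropped relative to STIM1 positive and Rho1 negative controls present on each plate; roughly 1500 genes called, with reductions of differing size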
Meaning of the calls: active = called as lowering calcium entry; inactive = not called

no.	gene knocked down	dsRNA	calcium signal, replicate 1	calcium signal, replicate 2	retest calcium signal, replicate 1	retest calcium signal, replicate 2	Outcome
1	DCTN3-p24 (GeneID 46074)	DRSC04592	141	96.9			inactive
2	Acsx4 (GeneID 42355)	DRSC14311	168	159			inactive
3	Est-6 (GeneID 39392)	DRSC11162	89.9	97.8			inactive
4	CG6878 (GeneID 39656)	DRSC10737	101	135			inactive
5	trbl (GeneID 43999)	DRSC11901	92.5	109			inactive
6	CG10462 (GeneID 35260)	DRSC02058	103	98.3			inactive
7	Vps13B (GeneID 43550)	DRSC15060	127	133			inactive
8	CG7139 (GeneID 40448)	DRSC11611	108	112			inactive
9	CG11566 (retired record) + stg1	DRSC20473	178	83.5			inactive
10	CG11566 (retired record) + stg1	DRSC20481	153	96.7			inactive
11	CG11566 (retired record) + stg1	DRSC20482	68.2	151			active
12	CG11566 (retired record) + stg1	DRSC20483	144	85.1			inactive
13	CG6138 (GeneID 34454)	DRSC02933	174	147			inactive
14	Ubc84D (GeneID 40900)	DRSC12610	121	143			inactive
15	CG14417 (GeneID 31274)	DRSC18638	160	157			inactive
16	Plap (GeneID 43978)	DRSC00678	129	285			inactive
17	CG3092 (GeneID 37682)	DRSC04336	162	73.4			inactive
18	CG33769 (GeneID 3772499)	DRSC11716	114	147			inactive
19	CG4409 (GeneID 36840)	DRSC06869	182	155			inactive

Laid out differently: 3 of the entries above
{"gene knocked down": "CG11566 (retired record) + stg1", "dsRNA": "DRSC20481", "calcium signal, replicate 1": 153, "calcium signal, replicate 2": 96.7, "Outcome": "inactive"}
{"gene knocked down": "CG11566 (retired record) + stg1", "dsRNA": "DRSC20482", "calcium signal, replicate 1": 68.2, "calcium signal, replicate 2": 151, "Outcome": "active"}
{"gene knocked down": "CG11566 (retired record) + stg1", "dsRNA": "DRSC20483", "calcium signal, replicate 1": 144, "calcium signal, replicate 2": 85.1, "Outcome": "inactive"}

The list goes on.
no.	gene knocked down	dsRNA	calcium signal, replicate 1	calcium signal, replicate 2	retest calcium signal, replicate 1	retest calcium signal, replicate 2	Outcome
20	gcm2 (GeneID 34280)	DRSC03538	181	155			inactive
21	CG13494 (GeneID 37497)	DRSC04139	146	106			inactive
22	Nnk (GeneID 42143)	DRSC15274	116	134			inactive
23	Spn38F (GeneID 49806)	DRSC03616	156	104			inactive
24	CG6712 (GeneID 34631)	DRSC02981	83.2	103	90.3	113	inactive
25	CG6712 (GeneID 34631)	DRSC21690	174	78			inactive
26	Mgat3 (GeneID 318981)	DRSC01305	291	77.6			inactive
27	tyf (GeneID 31363)	DRSC18382	178	84.8			inactive
28	CG42507 + Trl	DRSC11308	92	96.6			inactive
29	Mip (GeneID 39933)	DRSC10639	168	151			inactive
30	Chchd3 (GeneID 43672)	DRSC16981	149	133			inactive
31	CG42811 (GeneID 10178941)	DRSC15367	231	121			inactive
32	Nmd3 (GeneID 31195)	DRSC18687	139	181			inactive
33	Nmd3 (GeneID 31195)	DRSC22834	123	119			inactive
34	Mlp60A (GeneID 37853)	DRSC04623	93.9	102			inactive
35	Mlp60A (GeneID 37853)	DRSC22233	50.2	162			active
36	Mlp60A (GeneID 37853)	DRSC22481	94.9	220			inactive
